The source of these data is PubChem BioAssay AID248 (DTP/NCI, 2004).

The assay relates to L1210 leukemia ip in BDF1 mice, survival T/C. As to the kind of experiment: NCI In Vivo Anticancer Drug Screen. Data for tumor model L1210 Leukemia (intraperitoneal) in B6D2F1 (BDF1) mice. To be noted: T/C endpoint: mean survival time, higher T/C = longer survival.
Setting [1] is: dose: 400.0 mg/kg/injection, schedule: Q04DX003 (ip), vehicle: Klucel (hydroxypropylcellulose) (HPC).
[2] abbreviates: dose: 18.75 mg/kg/injection, schedule: Q01DX Z (ip), vehicle: methylcellulose (MC).
[3] abbreviates: dose: 37.5 mg/kg/injection, schedule: Q01DX Z (ip), vehicle: methylcellulose (MC).
Setting [4] is: dose: 200.0 mg/kg/injection, schedule: Q04DX003 (ip), vehicle: Klucel (hydroxypropylcellulose) (HPC).
The mark [5] stands for this setting: dose: 100.0 mg/kg/injection, schedule: Q01DX001 (ip), vehicle: saline.
[6] abbreviates: dose: 400.0 mg/kg/injection, schedule: Q01DX001 (ip), vehicle: saline.

The list does not hold the whole screen: it is rich in T/C values a quarter to a half above the control, in often repeated tests (any T/C) and in doses without a T/C. Further doses and runs are listed elsewhere. T/C gives the treated animals as a percentage of the vehicle group. Some doses have a count of surviving animals in place of a T/C: the source files T/C as zero there, which appears to mark a toxic dose or a test without result, not a measured value. Some doses without a T/C left all or most animals alive at the check, yet need not have been tolerated: the source hardly ever lists a survival T/C far under the control, and the zero likely stands for such cases as well. Survivors were counted at the toxicity check, usually on the fifth day, unless a day is given; later deaths do not show. Schedule codes are those of the source, taken here to give the interval after Q, in days (D) or hours (H), and the number of doses after X. Some schedule codes hold Z or #, which are not explained here. Some molecules as drawn cover several salts, stereoisomers or complexes of the source; a dose is that of the sample tested. Where survival is the endpoint, this PubChem deposit counts one and a half times the control or more as active, and values a quarter to a half above the control carry no call in these data; other NCI protocols may use other cut-offs. Some doses were run more than once; their values stand side by side, smallest first. Some T/C values carry the count of animals alive at the toxicity check (mostly the fifth day); where none is given, no animal had died by that day.

On to `Nc1ncnc2c1ccn2C1OC(CO)C(O)C1O` (stereo unspecified), for which the survivor count by setting is: (dose: 0.5 mg/kg/injection, schedule: Q## X005 (ip), vehicle: carboxymethylcellulose (CMC)) 0 of 10; (dose: 4.0 mg/kg/injection, schedule: Q02DX009 (ip), vehicle: carboxymethylcellulose (CMC)) 10 of 10; (dose: 5.0 mg/kg/injection, schedule: Q01DX Z (ip), vehicle: carboxymethylcellulose (CMC)) 4 of 6; (dose: 8.0 mg/kg/injection, schedule: Q01DX001 (ip), vehicle: carboxymethylcellulose (CMC)) 6 of 10; (dose: 8.0 mg/kg/injection, schedule: Q## X003 (ip), vehicle: carboxymethylcellulose (CMC)) 4 of 10; (dose: 10.0 mg/kg/injection, schedule: Q01DX Z (ip), vehicle: carboxymethylcellulose (CMC)) 0 of 6. In addition, the T/C by setting is: (dose: 2.0 mg/kg/injection, schedule: Q01DX001 (ip), vehicle: carboxymethylcellulose (CMC)) 130 % of control; (dose: 2.9 mg/kg/injection, schedule: Q01DX001 (ip), vehicle: carboxymethylcellulose (CMC)) 140 % of control; (dose: 4.0 mg/kg/injection, schedule: Q01DX001 (ip), vehicle: carboxymethylcellulose (CMC)) 131 % of control; (dose: 4.0 mg/kg/injection, schedule: Q## X003 (ip), vehicle: carboxymethylcellulose (CMC)) 127 % of control.
As for `COC(=O)C1(N)CCCC1`, the T/C was 126 % of control (dose: 45.0 mg/kg/injection, schedule: Q01DX009 (ip), vehicle: saline); 130 % of control (dose: 50.0 mg/kg/injection, schedule: Q01DX009 (ip), vehicle: saline); 128 and 133 % of control (dose: 66.0 mg/kg/injection, schedule: Q01DX009 (ip), vehicle: saline); 131 % of control (dose: 66.0 mg/kg/injection, schedule: Q01DX Z (ip), vehicle: saline); 129 and 147 % of control (dose: 100.0 mg/kg/injection, schedule: Q01DX009 (ip), vehicle: saline); 136 % of control (dose: 100.0 mg/kg/injection, schedule: Q01DX Z (ip), vehicle: saline). For the same compound, the T/C runs as follows: (dose: 150.0 mg/kg/injection, schedule: Q01DX009 (ip), vehicle: saline) 145 % of control; under setting [1], 141 and 148 % of control.
As for `CCOC(=O)CCOc1ccccc1N(CCCl)CCCl`, the T/C is 125 % of control (dose: 2.6 mg/kg/injection, schedule: Q01DX Z (ip), vehicle: methylcellulose (MC)); 144 % of control (dose: 3.9 mg/kg/injection, schedule: Q01DX Z (ip), vehicle: methylcellulose (MC)); 130 % of control (dose: 6.25 mg/kg/injection, schedule: Q01DX009 (ip), vehicle: other); 128 % of control (dose: 8.7 mg/kg/injection, schedule: Q01DX Z (ip), vehicle: methylcellulose (MC)); 129 % of control (dose: 12.5 mg/kg/injection, schedule: Q01DX001 (ip), vehicle: carboxymethylcellulose (CMC)); 145 % of control (dose: 12.5 mg/kg/injection, schedule: Q01DX009 (ip), vehicle: other). The T/C runs as follows: (dose: 12.5 mg/kg/injection, schedule: Q01DX009 (ip), vehicle: saline with Tween-80) 131 % of control [5 of 6 alive]; under setting [2], 125 % of control; (dose: 20.0 mg/kg/injection, schedule: Q01DX Z (ip), vehicle: methylcellulose (MC)) 146 % of control; (dose: 25.0 mg/kg/injection, schedule: Q01DX009 (ip), vehicle: saline with Tween-80) 127 % of control; under setting [3], 132 % of control [5 of 6 alive]; (dose: 50.0 mg/kg/injection, schedule: Q01DX001 (ip), vehicle: carboxymethylcellulose (CMC)) 125 and 135 % of control. Further, the T/C (dose: 100.0 mg/kg/injection, schedule: Q01DX009 (ip), vehicle: saline sonified) is 148 % of control. Besides, the survivor count was 0 of 6 under setting [2]; 0 of 6 under setting [3]; 5 of 6 (dose: 50.0 mg/kg/injection, schedule: Q04DX003 (ip), vehicle: other); 0 of 6 (dose: 75.0 mg/kg/injection, schedule: Q01DX Z (ip), vehicle: methylcellulose (MC)); 6 of 6 (dose: 150.0 mg/kg/injection, schedule: Q01DX Z (ip), vehicle: methylcellulose (MC)); 5 of 6 under setting [4]. The survivor count under setting [1] is given as 0 of 6.
For the compound `Cc1c(Cl)c(Cl)cc([N+](=O)[O-])c1Cl`, the T/C (dose: 100.0 mg/kg/injection, schedule: Q01DX009 (sc), vehicle: olive oil, sesame oil, peanut oil) was 129 % of control.
As for `CC(=O)Nc1ccc2c(c1)C(N(C)C)c1ccccc1-2` (stereo unspecified), the survivor count runs as follows: (dose: 200.0 mg/kg/injection, schedule: Q01DX001 (ip), vehicle: carboxymethylcellulose (CMC)) 1 of 4; (dose: 400.0 mg/kg/injection, schedule: Q01DX001 (ip), vehicle: carboxymethylcellulose (CMC)) 0 of 4.
Take `CC(C)(CO)N=Cc1ccccc1O.CC(C)(CO)N=Cc1ccccc1O.[Co]`: the survivor count under setting [5] is recorded as 1 of 6.
Regarding `ON1CCCC1`, the survivor count (dose: 400.0 mg/kg/injection, schedule: Q01DX009 (ip), vehicle: water) is on record as 0 of 6.
With `Cc1ccc(S(=O)(=O)OC2CCN(C)CC2)cc1`, the survivor count is, setting by setting: (dose: 50.0 mg/kg/injection, schedule: Q04DX003 (ip), vehicle: saline) 0 of 6; (dose: 100.0 mg/kg/injection, schedule: Q04DX003 (ip), vehicle: saline) 0 of 6; (dose: 200.0 mg/kg/injection, schedule: Q01DX005 (ip), vehicle: saline) 0 of 3; (dose: 200.0 mg/kg/injection, schedule: Q04DX003 (ip), vehicle: saline) 0 of 6; (dose: 400.0 mg/kg/injection, schedule: Q01DX005 (ip), vehicle: saline) 0 of 3; (dose: 400.0 mg/kg/injection, schedule: Q04DX003 (ip), vehicle: saline) 0 of 6.
As to `N#CC(C#N)=Cc1ccc2c(c1)CCC2`, the survivor count by setting is: (dose: 150.0 mg/kg/injection, schedule: Q01DX001 (ip), vehicle: other) 0 of 6; (dose: 300.0 mg/kg/injection, schedule: Q01DX001 (ip), vehicle: other) 0 of 6.
Take `O=C(c1ccc(Cl)cc1)c1cccc[n+]1Cc1ccccc1`: the survivor count (dose: 150.0 mg/kg/injection, schedule: Q01DX009 (ip), vehicle: Klucel (hydroxypropylcellulose) (HPC)) is recorded as 3 of 6; the survivor count under setting [4] is given as 0 of 6; the survivor count (dose: 225.0 mg/kg/injection, schedule: Q01DX009 (ip), vehicle: Klucel (hydroxypropylcellulose) (HPC)) was 0 of 6; the survivor count (dose: 335.0 mg/kg/injection, schedule: Q01DX009 (ip), vehicle: Klucel (hydroxypropylcellulose) (HPC)) is 0 of 6; the survivor count under setting [1] is reported as 0 of 6.
As to `O=S(=O)(Nc1nccs1)c1ccc(N=Nc2ccc(O)c3ncccc23)cc1`, the survivor count under setting [5] is 3 of 6.
Regarding `Cc1ccc(S(=O)(=O)NS(=O)(=O)c2ccc(C)cc2)cc1`, the survivor count by setting is: under setting [4], 3 of 3; under setting [6], 2 of 4; under setting [1], 2 of 3.
On to `NNC(=O)CNc1ccc(F)c(C(F)(F)F)c1`, for which the survivor count (dose: 400.0 mg/kg/injection, schedule: Q04DX002 (ip), vehicle: Klucel (hydroxypropylcellulose) (HPC)) is on record as 1 of 3.
Consider `Nc1ccc2c(ccc3cccc[n+]32)c1`, for which, under setting [6], the survivor count is 1 of 4.
As for `CCCCCCCCCCCC(O)CCCC` (stereo unspecified), where the note is “dose: 400.0 mg/kg/injection, schedule: Q01DX009 (ip), vehicle: Klucel (hydroxypropylcellulose) (HPC)”, the survivor count is given as 5 of 6.
With `CCN(CC)C(=S)SCc1ccccc1OC(=O)NC`, the survivor count (dose: 300.0 mg/kg/injection, schedule: Q01DX001 (ip), vehicle: saline) was 0 of 6.
Take `COc1ccc2c(=O)c3c(O)cc(OC)cc3oc2c1`: the survivor count runs as follows: under setting [5], 6 of 6; (dose: 200.0 mg/kg/injection, schedule: Q01DX001 (ip), vehicle: saline) 6 of 6.
